No constants are given. Whether binding was seen depends on the method and setting. Binding seen in cells or lysates may run through a third protein. Some results given as binding are weak or reduced against the parent protein; the word gives no strength. Tags and fused reporters may be left off the sequences shown.
Biological target: T1, Flag‐HMGA2‐S105A mutant (human) (UniProt P52926)
T1 sequence: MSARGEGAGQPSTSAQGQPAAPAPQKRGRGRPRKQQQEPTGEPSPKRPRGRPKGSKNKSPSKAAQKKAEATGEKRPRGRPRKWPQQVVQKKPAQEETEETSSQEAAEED
Assay: co-IP; TRIM21 interaction of HMGA2-S105A against wild type (Figure S5E; legend not shown; co-IP is the only binding method that the paper describes)

Sequences of proteins named here, by UniProt entry; tags and fusion partners are left off.
UniProt P19474: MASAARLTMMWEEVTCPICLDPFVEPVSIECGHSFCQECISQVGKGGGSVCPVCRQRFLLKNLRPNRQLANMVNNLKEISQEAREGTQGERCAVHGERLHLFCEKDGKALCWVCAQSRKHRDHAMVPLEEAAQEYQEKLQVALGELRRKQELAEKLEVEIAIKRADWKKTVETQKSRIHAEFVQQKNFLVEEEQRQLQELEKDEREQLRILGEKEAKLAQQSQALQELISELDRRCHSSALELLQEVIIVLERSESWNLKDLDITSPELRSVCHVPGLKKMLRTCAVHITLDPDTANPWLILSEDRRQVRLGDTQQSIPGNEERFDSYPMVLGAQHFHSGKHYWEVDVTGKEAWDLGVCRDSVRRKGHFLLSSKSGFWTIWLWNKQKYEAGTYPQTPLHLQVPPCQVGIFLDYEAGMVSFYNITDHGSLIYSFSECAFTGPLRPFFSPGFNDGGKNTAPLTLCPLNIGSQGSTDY

binding: binds
Substance: tripartite motif‐containing 21 (TRIM21) (from UniProt P19474 1-475)

From article PMC12225019
